# According to US20080050354A1, “PROTECTING BIOACTIVE FOOD INGREDIENTS USING MICROORGANISMS HAVING REDUCED METABOLIZING CAPACITY” (COMPAGNIE GERVAIS DANONE, priority 2004, published 2008):
# Chains of the proteins cited; added tags and fusions are not shown. Lines headed by an entry give the natural chain unless they say otherwise; changes in a name come on top.
# UniProt P02662: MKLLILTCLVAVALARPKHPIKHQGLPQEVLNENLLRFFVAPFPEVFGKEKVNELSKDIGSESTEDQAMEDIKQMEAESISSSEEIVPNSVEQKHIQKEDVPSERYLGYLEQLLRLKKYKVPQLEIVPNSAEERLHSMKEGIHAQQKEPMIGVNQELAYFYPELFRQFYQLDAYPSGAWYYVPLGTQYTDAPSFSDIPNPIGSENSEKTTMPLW
# Tested on: strain I-3211
# Assay: Fermentation with variant strain I-3211 lacking the AMI peptide transport system
# Set-up: species or system Streptococcus thermophilus
substance,measurement,setting,value
"peptide αS1 [91-100]: fragment 91-100 of casein αS1; peptide with relaxing properties contained in the milk protein hydrolyzate Lactium® (Ingredia) (YLGYLEQLLR; UniProt P02662 106-115, looked up, fragment)",consumption of peptide by the variant,,does not consume
same,level of survival of the peptide after fermentation,"conditions identical to Table 4 (ingredient 1.5 g/L, stop at pH 4.7)",greater than 85%
